# Some results were stated once for a whole list of compounds, not compound by compound. For at least one compound, name, drawing or mass did not settle the structure.
# Tested on: Alternaria solani
# Assay: Alternaria test (tomato)/protective
# Assay type: in vivo
# Details: active compound concentration 500 ppm, protective, evaluation 7 days after inoculation
row,SMILES,efficacy [%]
1,CC(=NOCC(C)(C)CON=C(C)c1cccc(C)n1)c1cccc(Cl)c1 [Compound 483],≥ 70
2,CC(=NOC[Si](C)(C)CON=C(C)c1ccc(C)c(C)n1)c1ccc(C)c(C)n1 [Compound 870],≥ 70
3,CC(=NOCCCCCCON=C(C)c1nccc(C)n1)c1cccc(C)n1 [Compound 509],≥ 70
4,CC(=NOCCCON=C(C)c1ccnc(C)c1)c1ccnc(C)c1 [Compound 165],≥ 70
5,CC(=NOCC(C)CON=C(C)c1cc(-c2ccccc2)ccn1)c1cc(-c2ccccc2)ccn1 (centres unmarked) [Compound 119],≥ 70
6,COc1cccc(C(C)=NOCC(C)CON=C(C)c2cccc(C)n2)c1 (centres unmarked) [Compound 495],≥ 70
7,CC(=NOCCCCON=C(C)c1cccc(C)n1)c1cc(C)ccn1 [Compound 373],≥ 70
8,CC(=NOCC(C)(C)CON=C(C)c1ccc(Cl)s1)c1cccc(C)n1 [Compound 486],≥ 70
9,"C=C(CON=C(C)c1cccc(C)n1)CON=C(C)c1cc(OC)cc(C)n1 (single isomer, unassigned) [Compound 476]",≥ 70
10,"C=C(CON=C(C)c1cccc(C)n1)CON=C(C)c1ncccc1C (single isomer, unassigned) [Compound 203]",≥ 70
11,CCC(=NOCCCCCCON=C(C)c1cccc(C)n1)c1cccc(C)n1 [Compound 346],≥ 70
12,CC(=NOCC(C)CON=C(c1cccc(C)n1)C1CC1)c1cccc(C)n1 (centres unmarked) [Compound 429],≥ 70
13,CC(=NOCCCCON=C(C)c1cccc(C)n1)c1cccc(C(F)(F)F)c1 [Compound 375],≥ 70
14,CC(=NOCC(C)(C)CON=C(C)c1cccc(C)n1)c1cccc(C)n1 (mixture of isomers) [Compound 250],≥ 70
15,CC(=NOCC1(CON=C(C)c2cccc(C)n2)CC(c2ccccc2)=NO1)c1cccc(C)n1 (centres unmarked) [Compound 593],≥ 70
16,CC(=NOCC(C)(C)CON=C(C)c1cccc(CC(C)C)n1)c1cccc(C)n1 [Compound 367],≥ 70
17,C=C(CON=C(C)c1ccc(Cl)nc1)CON=C(C)c1ccc(Cl)nc1 [Compound 57],≥ 70
18,CC(=NOCCON=C(C)c1cccc(C)n1)c1cccc(C)n1 (mixture of isomers) [Compound 13],≥ 70
19,COc1cc(OC)nc(C(C)=NOCC(C)CON=C(C)c2nc(OC)cc(OC)n2)n1 (centres unmarked) [Compound 272],≥ 70
20,"CCCC(=NOCCCCON=C(C)c1cccc(C)n1)c1ncccc1C (single isomer, unassigned) [Compound 327]",≥ 70
21,CC(=NOCC(C)(C)CON=C(C)c1cccc(C)n1)c1ccc(C)nc1 [Compound 416],≥ 70
22,CC(=NOC/C=C\CON=C(C)c1ccccn1)c1ccccn1 [Compound 541],≥ 70
23,C=C(CON=C(C)c1nc(C)ccc1OC)CON=C(C)c1nc(C)ccc1OC [Compound 283],≥ 70
24,CCC(=NOCC(C)CON=C(C)c1cccc(C)n1)c1cccc(C)n1 (centres unmarked) [Compound 428],≥ 70
25,CC(=NOCC(C)(C)CON=C(c1ccccc1)c1cccc(C)n1)c1cccc(C)n1 [Compound 371],≥ 70
26,CC(=NOCc1ccccc1CON=C(C)c1ccccn1)c1ccccn1 [Compound 725],≥ 70

# Tested on: Leptosphaeria nodorum
# Assay: Leptosphaeria nodorum test (wheat)/protective
# Assay type: in vivo
# Details: active compound concentration 1000 ppm, protective, evaluation 10 days after inoculation
row,SMILES,efficacy [%]
1,CC(=NOCC(C)(C)CON=C(C)c1cccc(CC(C)C)n1)c1cccc(C)n1 [Compound 367],≥ 70

# Tested on: Venturia inaequalis
# Assay: Venturia test (apple)/protective
# Assay type: in vivo
# Details: active compound concentration 100 ppm, protective, evaluation 10 days after inoculation
row,SMILES,efficacy [%]
1,CC(=NOCC1(CON=C(C)c2cccc(C)n2)CC(c2ccccc2)=NO1)c1cccc(C)n1 (centres unmarked) [Compound 593],≥ 70
2,C=C(CON=C(C)c1nc(C)ccc1OC)CON=C(C)c1nc(C)ccc1OC [Compound 283],≥ 70

# Tested on: Puccinia recondita
# Assay: Puccinia test (wheat)/protective
# Assay type: in vivo
# Details: active compound concentration 500 ppm, protective, evaluation 8-10 days after inoculation
row,SMILES,efficacy [%]
1,CC(=NOC[Si](C)(C)CON=C(C)c1ccc(C)c(C)n1)c1ccc(C)c(C)n1 [Compound 870],≥ 70
2,CC(=NOCCCCON=C(C)c1cccc(C)n1)c1cc(C)ccn1 [Compound 373],≥ 70
3,CC(=NOCCCCON=C(C)c1cccc(C)n1)c1cccc(C(F)(F)F)c1 [Compound 375],≥ 70
4,CC(=NOCC(C)(C)CON=C(C)c1cccc(C)n1)c1cccc(C)n1 (mixture of isomers) [Compound 250],≥ 70
5,CCC(=NOCC(C)CON=C(C)c1cccc(C)n1)c1cccc(C)n1 (centres unmarked) [Compound 428],≥ 70

# Tested on: Sphaerotheca fuliginea
# Assay: Sphaerotheca test (cucumber)/protective
# Assay type: in vivo
# Details: active compound concentration 500 ppm, protective, evaluation 7 days after inoculation
row,SMILES,efficacy [%]
1,CC(=NOC[Si](C)(C)CON=C(C)c1ccc(C)c(C)n1)c1ccc(C)c(C)n1 [Compound 870],≥ 70
2,CC(=NOCC(C)CON=C(c1cccc(C)n1)C1CC1)c1cccc(C)n1 (centres unmarked) [Compound 429],≥ 70
3,CC(=NOCC(C)(C)CON=C(C)c1cccc(C)n1)c1cccc(C)n1 (mixture of isomers) [Compound 250],≥ 70
4,CC(=NOCC(C)(C)CON=C(C)c1cccc(CC(C)C)n1)c1cccc(C)n1 [Compound 367],≥ 70
5,CC(=NOCC(C)(C)CON=C(C)c1cccc(C)n1)c1ccc(C)nc1 [Compound 416],≥ 70
6,C=C(CON=C(C)c1nc(C)ccc1OC)CON=C(C)c1nc(C)ccc1OC [Compound 283],≥ 70
7,CCC(=NOCC(C)CON=C(C)c1cccc(C)n1)c1cccc(C)n1 (centres unmarked) [Compound 428],≥ 70

# Source: patent US20100022559A1, “BISOXIMES AS FUNGICIDES” (BAYER CROPSCIENCE AG, priority 2006, published 2010)
